# Experimental data published in paper PMC8277845.
# Chains of the proteins cited; added tags and fusions are not shown.
# UniProt P19474: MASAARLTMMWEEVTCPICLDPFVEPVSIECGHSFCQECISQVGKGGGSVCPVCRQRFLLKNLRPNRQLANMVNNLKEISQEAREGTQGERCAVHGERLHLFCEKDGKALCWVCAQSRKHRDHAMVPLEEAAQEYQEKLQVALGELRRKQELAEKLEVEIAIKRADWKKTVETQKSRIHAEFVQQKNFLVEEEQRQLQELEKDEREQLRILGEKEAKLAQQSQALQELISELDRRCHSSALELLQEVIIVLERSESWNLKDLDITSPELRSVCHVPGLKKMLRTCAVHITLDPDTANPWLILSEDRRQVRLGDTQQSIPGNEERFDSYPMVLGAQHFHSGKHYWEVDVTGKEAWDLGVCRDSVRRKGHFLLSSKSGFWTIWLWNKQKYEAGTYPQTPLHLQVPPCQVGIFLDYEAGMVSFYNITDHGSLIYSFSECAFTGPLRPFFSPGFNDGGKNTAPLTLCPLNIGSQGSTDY
# Results are given in words; binding and its absence hold for the method and conditions named. Binding seen in cells or lysates may run through a third protein. Some entries that bind do so weakly or less than the wild type. Tags and fused reporters may be left off the sequences shown.
# Molecular target: tripartite motif-containing protein 21 (TRIM21), Flag-tagged (UniProt P19474)
# Assay: co-IP; TRIM21-Flag co-expressed with HHARI-Myc, EFP-Myc or HERC5-Myc in HEK293 cells; lysates (Western & IP lysis buffer) immunoprecipitated with mouse control IgG or mouse Flag antibodies and protein A/G agarose, 4 h or overnight at 4 °C; blot with rabbit Flag and mouse Myc antibodies
binder,measurement,value
"HECT and RLD domain containing E3 ubiquitin protein ligase 5 (HERC5), Myc-tagged (enzyme, UniProt Q9UII4 1-1024) MERRSRRKSRRNGRSTAGKAAATQPAKSPGAQLWLFPSAAGLHRALLRRVEVTRQLCCSPGRLAVLERGGAGVQVHQLLAGSGGARTPKCIKLGKNMKIHSVDQGAEHMLILSSDGKPFEYDNYSMKHLRFESILQEKKIIQITCGDYHSLALSKGGELFAWGQNLHGQLGVGRKFPSTTTPQIVEHLAGVPLAQISAGEAHSMALSMSGNIYSWGKNECGQLGLGHTESKDDPSLIEGLDNQKVEFVACGGSHSALLTQDGLLFTFGAGKHGQLGHNSTQNELRPCLVAELVGYRVTQIACGRWHTLAYVSDLGKVFSFGSGKDGQLGNGGTRDQLMPLPVKVSSSEELKLESHTSEKELIMIAGGNQSILLWIKKENSYVNLKRTIPTLNEGTVKRWIADVETKRWQSTKREIQEIFSSPACLTGSFLRKRRTTEMMPVYLDLNKARNIFKELTQKDWITNMITTCLKDNLLKRLPFHSPPQEALEIFFLLPECPMMHISNNWESLVVPFAKVVCKMSDQSSLVLEEYWATLQESTFSKLVQMFKTAVICQLDYWDESAEENGNVQALLEMLKKLHRVNQVKCQLPESIFQVDELLHRLNFFVEVCRRYLWKMTVDASENVQCCVIFSHFPFIFNNLSKIKLLHTDTLLKIESKKHKAYLRSAAIEEERESEFALRPTFDLTVRRNHLIEDVLNQLSQFENEDLRKELWVSFSGEIGYDLGGVKKEFFYCLFAEMIQPEYGMFMYPEGASCMWFPVKPKFEKKRYFFFGVLCGLSLFNCNVANLPFPLALFKKLLDQMPSLEDLKELSPDLGKNLQTLLDDEGDNFEEVFYIHFNVHWDRNDTNLIPNGSSITVNQTNKRDYVSKYINYIFNDSVKAVYEEFRRGFYKMCDEDIIKLFHPEELKDVIVGNTDYDWKTFEKNARYEPGYNSSHPTIVMFWKAFHKLTLEEKKKFLVFLTGTDRLQMKDLNNMKITFCCPESWNERDPIRALTCFSVLFLPKYSTMETVEEALQEAINNNRGFG",binding,binds
